These results are taken from PubChem BioAssay AID212 (DTP/NCI, 2004).

Structures are written as SMILES. The list is a part of this screen's results and no random one: it is rich in T/C values a quarter to a half above the control, in often repeated tests (any T/C) and in doses without a T/C. Further doses and runs are listed elsewhere. T/C gives the treated animals as a percentage of the vehicle group. Schedules are NCI's codes, read here as Q, the interval in days (D) or hours (H), X, the number of doses. Some T/C values carry the count of animals alive at the toxicity check (mostly the fifth day); without a count, all were alive then. Some doses have a count of surviving animals in place of a T/C: the source holds a T/C of zero for them, seemingly a mark for toxic or unscored doses. Survivors were counted at the toxicity check, usually on the fifth day, unless a day is given; later deaths do not show. Some entries hold several experiments; the values are given in rising order.

For this experiment, the system named is BDF1 mice, colon carcinoma 38 sc, T/C %. The experiment can be described thus: NCI In Vivo Anticancer Drug Screen. Data for tumor model Colon Carcinoma 38 (subcutaneous) in B6D2F1 (BDF1) mice. The following applies: T/C endpoint: median tumor weight (est.), higher T/C = larger tumour. The protocol: The antitumor activity of compounds was measured in mice bearing transplantable tumors. Survival or tumor size were measured and the results are expressed as the measurement made in the treated group (T) divided by the measurement made in the vehicle treated control group (C). The tumor model used in this assay is Colon Carcinoma 38 (subcutaneous) in B6D2F1 (BDF1) mice

The mark [1] stands for this setting: dose: 200.0 mg/kg/injection, schedule: Q07DX002 (ip), vehicle: saline with Tween-80.
Where [2] appears, read: dose: 400.0 mg/kg/injection, schedule: Q07DX002 (ip), vehicle: saline with Tween-80.
The mark [3] stands for this setting: dose: 25.0 mg/kg/injection, schedule: Q07DX002 (ip), vehicle: water, evaluated on day 20.
[4] abbreviates: dose: 200.0 mg/kg/injection, schedule: Q07DX002 (ip), vehicle: Klucel (hydroxypropylcellulose) (HPC).
Setting [5] is: dose: 400.0 mg/kg/injection, schedule: Q07DX002 (ip), vehicle: Klucel (hydroxypropylcellulose) (HPC).
Setting [6] is: dose: 25.0 mg/kg/injection, schedule: Q07DX002 (ip), vehicle: Klucel (hydroxypropylcellulose) (HPC), evaluated on day 20.

As for `CCCCCCCCCCCCCCCC(=O)OCC1OC(n2ccc(N)nc2=O)C(O)C1O` (stereo not given), the survivor count by setting is: under setting [1], 0 of 10 on day 20; under setting [2], 0 of 10 on day 20; (dose: 800.0 mg/kg/injection, schedule: Q07DX002 (ip), vehicle: saline with Tween-80) 0 of 10 on day 20.
With `Cc1cc2nc3c(=O)[nH]c(=O)nc-3n(CC(O)C(O)C(O)C(O)CO)c2cc1C` (stereo not given), the survivor count (dose: 100.0 mg/kg/injection, schedule: Q07DX002 (ip), vehicle: suspension in saline) is 6 of 10 on day 20 and the survivor count (dose: 1600.0 mg/kg/injection, schedule: Q07DX002 (ip), vehicle: suspension in saline) is given as 6 of 10 on day 20.
Turning to `C[C@]12C=CC(=O)C=C1CC[C@@H]1[C@@H]2C(=O)C[C@@]2(C)[C@H]1CC[C@]2(O)C(=O)CO`, for the setting “dose: 100.0 mg/kg/injection, schedule: Q07DX002 (ip), vehicle: Klucel (hydroxypropylcellulose) (HPC), evaluated on day 20”, the T/C was 134 % of control.
Turning to `C1CC[N-]CC1.[Cl][Pt+2][Cl].[NH-]C1CC1`, the T/C was 128 % of control [9 of 10 alive on day 20] (dose: 6.25 mg/kg/injection, schedule: Q07DX002 (ip), vehicle: water, evaluated on day 20); 125 % of control under setting [3]; 130 % of control [8 of 10 alive on day 20] (dose: 200.0 mg/kg/injection, schedule: Q07DX002 (ip), vehicle: water, evaluated on day 20). The survivor count runs as follows: (dose: 100.0 mg/kg/injection, schedule: Q07DX002 (ip), vehicle: water) 5 of 10 on day 20; (dose: 200.0 mg/kg/injection, schedule: Q07DX002 (ip), vehicle: water) 0 of 10 on day 20.
Take `C[C@]12CC[C@H]3[C@@H](CCC4=C[C@@H](OC5OCC(OC6OC(CO)C(O)C(O)C6O)C(O)C5O)CC[C@@]43C=O)[C@@]1(O)CCC2C1=CC(=O)OC1` (stereo not given in full): the T/C (dose: 0.63 mg/kg/injection, schedule: Q07DX003 (ip), vehicle: Klucel (hydroxypropylcellulose) (HPC), evaluated on day 20) is 132 % of control.
Take `COc1cc(C)c(C2NC(=O)c3ccccc3N2)cc1C` (stereo not given): for the setting “dose: 200.0 mg/kg/injection, schedule: Q07DX002 (ip), vehicle: Klucel (hydroxypropylcellulose) (HPC), evaluated on day 20”, the T/C is 146 % of control.
Take `CO[C@H](C(=O)[C@@H](O)[C@@H](C)O)[C@@H]1Cc2cc3cc(OC4CC(OC5CC(O)C(O)C(C)O5)C(O)C(C)O4)c(C)c(O)c3c(O)c2C(=O)[C@H]1OC1CC(OC2CC(OC3CC(C)(O)C(O)C(C)O3)C(O)C(C)O2)C(O)C(C)O1` (stereo not given in full): the T/C is, setting by setting: (dose: 0.5 mg/kg/injection, schedule: Q07DX002 (ip), vehicle: saline, evaluated on day 21) 127 % of control; (dose: 1.0 mg/kg/injection, schedule: Q07DX002 (ip), vehicle: saline, evaluated on day 21) 143 % of control [8 of 10 alive]; (dose: 2.0 mg/kg/injection, schedule: Q07DX002 (ip), vehicle: saline, evaluated on day 21) 128 % of control.
Regarding `C=C(C)C(=O)OC1C/C(CO)=C\C(O)C/C(C)=C/C2OC(=O)C(=C)C21` (stereo not given), the T/C (dose: 10.0 mg/kg/injection, schedule: Q07DX002 (ip), vehicle: saline + alcohol, evaluated on day 20) was 134 % of control. In addition, the survivor count (dose: 80.0 mg/kg/injection, schedule: Q07DX002 (ip), vehicle: saline + alcohol) is 3 of 10 on day 20.
For the compound `Oc1cc2c3c(c1)c1cc4c(cc1c[n+]3CC2)OCO4`, the T/C reads like this: (dose: 3.12 mg/kg/injection, schedule: Q07DX002 (ip), vehicle: water, evaluated on day 20) 127 % of control; under setting [3], 125 % of control.
On to `C=CCNc1ccc(C)cc1`, for which the T/C (dose: 6.25 mg/kg/injection, schedule: Q07DX002 (ip), vehicle: Klucel (hydroxypropylcellulose) (HPC), evaluated on day 20) was 135 % of control [9 of 10 alive on day 20].
In the case of `CC1OC1C(=O)C1(O)C(C)C(O)C23OC2(C(O)c2c(O)cccc2C3=O)C1O` (stereo not given), the survivor count is, setting by setting: (dose: 32.0 mg/kg/injection, schedule: Q07DX002 (ip), vehicle: Klucel (hydroxypropylcellulose) (HPC)) 2 of 10 on day 20; (dose: 64.0 mg/kg/injection, schedule: Q07DX002 (ip), vehicle: Klucel (hydroxypropylcellulose) (HPC)) 2 of 10 on day 20.
As for `O=C(Nc1ccc(N=C=S)cc1Cl)c1cc(Cl)cc(Cl)c1O`, the survivor count by setting is: (dose: 100.0 mg/kg/injection, schedule: Q07DX002 (ip), vehicle: Klucel (hydroxypropylcellulose) (HPC)) 5 of 10 on day 20; under setting [4], 0 of 10 on day 20 and 1 of 10 on day 20; under setting [5], 0 of 10 on day 20.
For `Nc1ccc(S(=O)(=O)c2ccc(N)cc2)cc1`, where the note is “dose: 56.0 mg/kg/injection, schedule: Q07DX002 (ip), vehicle: saline with Tween-80, evaluated on day 20”, the T/C is 126 % of control.
In the case of `N=C(N)c1ccc(/C=C/c2ccc(C(=N)N)cc2O)cc1`, under “dose: 50.0 mg/kg/injection, schedule: Q07DX002 (ip), vehicle: water, evaluated on day 20”, the T/C is 141 % of control.
With `O=Cc1ccc(C=O)c(Cl)c1`, where the note is “dose: 800.0 mg/kg/injection, schedule: Q07DX002 (ip), vehicle: Klucel (hydroxypropylcellulose) (HPC)”, the survivor count is on record as 6 of 10 on day 20.
With `C[CH2][Pb]([CH2]C)([CH2]C)[O]C(=O)COc1ccccc1`, the T/C (dose: 1.5 mg/kg/injection, schedule: Q07DX002 (ip), vehicle: Klucel (hydroxypropylcellulose) (HPC), evaluated on day 20) was 135 % of control. Moreover, under “dose: 24.0 mg/kg/injection, schedule: Q07DX002 (ip), vehicle: Klucel (hydroxypropylcellulose) (HPC)”, the survivor count is listed as 5 of 8 on day 20.
Consider `COC1C(O)C(C)OC(OC2C(Oc3cccc4c(O)c5c(=O)oc6ccc(C)c7c(=O)oc(c34)c5c67)OC(C)C(O)C2O)C1O` (stereo not given), for which the T/C runs as follows: under setting [6], 132 % of control; (dose: 25.0 mg/kg/injection, schedule: Q07DX003 (ip), vehicle: Klucel (hydroxypropylcellulose) (HPC), evaluated on day 20) 134 % of control. The survivor count reads like this: under setting [4], 2 of 10; (dose: 200.0 mg/kg/injection, schedule: Q07DX003 (ip), vehicle: Klucel (hydroxypropylcellulose) (HPC)) 5 of 10.
Regarding `O=C(O)CSc1c(Cl)c(=O)oc2ccc(Cl)cc12`, under setting [5], the survivor count is reported as 0 of 10 on day 20.
With `COc1ccc2[nH]c3c(c2c1)CCNC3CC(C)CCC=C(C)C` (stereo not given), the T/C is 136 % of control under setting [6] and 127 % of control [8 of 10 alive on day 20] (dose: 50.0 mg/kg/injection, schedule: Q07DX002 (ip), vehicle: Klucel (hydroxypropylcellulose) (HPC), evaluated on day 20). The survivor count reads like this: under setting [4], 6 of 10 on day 20; under setting [5], 2 of 10 on day 20.
Regarding `O=C1C=C[C@H](O)[C@@]2(CO)O[C@@H]12`, where the note is “dose: 20.0 mg/kg/injection, schedule: Q07DX002 (ip), vehicle: saline with Tween-80”, the survivor count is given as 5 of 10 on day 20.
`CC[C@@]1(O)C[C@H](OC2CC(N(C)C)C(OC3CC(O)C(OC4CCC(=O)C(C)O4)C(C)O3)C(C)O2)c2c(cc3c(c2O)C(=O)c2c(O)ccc(O)c2C3=O)[C@H]1C(=O)OC` (stereo not given in full): the survivor count (dose: 16.0 mg/kg/injection, schedule: Q07DX002 (ip), vehicle: water) is given as 0 of 10 on day 20.
For `CS(=O)(=O)CS(=O)(=O)OCCCl`, the T/C (dose: 25.0 mg/kg/injection, schedule: Q07DX002 (ip), vehicle: saline, evaluated on day 20) is 136 % of control. Besides, the survivor count is, setting by setting: (dose: 50.0 mg/kg/injection, schedule: Q07DX002 (ip), vehicle: saline with Tween-80) 6 of 10 on day 20; (dose: 100.0 mg/kg/injection, schedule: Q07DX002 (ip), vehicle: saline with Tween-80) 0 of 10 on day 20; under setting [1], 0 of 10 on day 20; under setting [2], 0 of 10 on day 20.
Regarding `Cc1c2cc(Cl)c3ccccc3c2c[n+]2ccccc12`, the T/C (dose: 25.0 mg/kg/injection, schedule: Q07DX002 (ip), vehicle: saline with Tween-80, evaluated on day 20) was 149 % of control. For the same compound, the survivor count is 6 of 10 on day 20 under setting [1] and 0 of 10 on day 20 under setting [2].
